For 62 compounds, cell number change and AC50 results are on record in PubChem BioAssay AID2685 (National Center for Advancing Translational Sciences (NCATS), 2010).

The nature of this assay: qHTS Assay for Lipid Storage Modulators in Drosophila S3 Cells.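 On cell number change: cells counted by Cell Tracker Red CMTPX staining in the red channel.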 The conditions noted are these: BODIPY lipid droplet fluorescence, 18-24 h; for cell number change: measured here: cell count max response, cells fed with added oleic acid. In short, it runs like this:
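Laser-scanning cytometry quantifies lipid droplet accumulation (500–530 nm total intensity; droplet/cell object ratio) in oleic acid-fed (400 uM added) Drosophila S3 cells treated with a concentration series. 20 uM Triacsin C defined 100% inhibition.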
Background: qHTS replaces the single test concentration by a dilution series.

Where [1] appears, read: measured here: lipid fluorescence (Fed channel) AC50, cells fed with added oleic acid.
The mark [2] stands for this setting: measured here: cell number channel AC50, cells fed with added oleic acid.

Some of the results follow. Further columns of the screen follow, without active or inactive calls. Compounds called inactive in the main read-out are mostly missing here. Words in brackets tell the shape of the fitted curve; partial curves, single points and poor fits give uncertain potencies.

As for `CCOC(=O)CNc1nc(Cl)nc(N2CCCCC2)n1`, the cell number change is -19%.

Regarding `CCC(=O)Nc1cc(C(=O)OCc2ccc(C(=O)Oc3ccccc3)cc2)ccc1C`, the cell number change came out at 8.96%. Further, the concentration at half-maximal activity (AC50) under setting [1] is 14.6 µM [rising, partial curve, poor fit].

Take `CC(C)Nc1nc(NC(C)C)nc(Oc2ccc(OCc3ccccc3)nn2)n1`: the AC50 under setting [1] was 29.1 µM [falling, single point].

Turning to `O=C(NNC(=O)c1cccs1)c1ccc(Cl)nc1`, the cell number change was -34%. In addition, under setting [2], the AC50 is 10.3 µM [falling, partial curve, poor fit].

For `CCOc1ccc(-c2nnc(NC(=O)C3CCCC3)o2)cc1`, the cell number change was 2.38%.

For `Nc1ccc(C(=O)Nc2cccc3ncccc23)cc1`, the cell number change is -6.63%. The AC50 under setting [1] is 6.51 µM [falling, single point].

Turning to `N#Cc1ccc2ccn(CC(=O)NCc3ccco3)c2c1`, the cell number change came out at 9.02%. Under setting [1], the AC50 was 13 µM [rising, single point].

With `S=C(NCCNC(=S)Nc1ccccc1Cl)Nc1ccccc1Cl`, the cell number change worked out at 7.08%.

In the case of `CCN(CC)C(=O)c1cccc(NC(=O)c2cc(C3CC3)nc3c2cnn3C(C)C)c1`, the cell number change was -10.6%. Under setting [1], the AC50 is 0.13 µM [falling, full curve, poor fit].

For the compound `CCN1C(=O)/C(=C\c2ccc3c(c2)OCO3)C(C(=O)OC)=C1C`, the cell number change was -15.5%. Besides, the AC50 under setting [2] was 0.00461 µM [falling, partial curve, poor fit].

`Cc1cc(C)c2c(=O)[nH]c(SCC(=O)N3CCOCC3)nc2n1`: the cell number change stood at 16.4%.

In the case of `CN1CCCN(C(=O)c2ccc(Br)s2)CC1`, the cell number change was -17.1%.

For `O=C(NCC1CCCO1)c1cc2c([nH]c3ccccc32)c(-c2cccc(Cl)c2)n1` (stereo not drawn), the cell number change was 21%. Besides, under setting [1], the AC50 was 6.51 µM [falling, full curve].

Take `CCOC(=O)N1CCN(c2c(NCCOC)c(=O)c2=O)CC1`: under setting [1], the concentration at half-maximal activity (AC50) is 0.82 µM [rising, full curve].

For `Cc1nc2ccccc2n1CCC(=O)Nc1cccc(F)c1`, the AC50 under setting [2] is 5.8 µM [rising, single point].

As for `CCOC(=O)c1ccc(NC(=O)c2c(C)[nH]c(C(=O)OCC)c2C)cc1`, the cell number change is -11%.

With `CN(C)C(=O)CNC(=O)CN1C(=O)NC2(CCCc3sccc32)C1=O` (stereo not drawn), the cell number change amounted to 27.6%. Also, the AC50 under setting [1] was 0.1 µM [rising, full curve, poor fit].

As to `C=CCN1C(=O)/C(=C/c2ccc(OC(C)=O)c(OCC)c2[N+](=O)[O-])SC1=S`, the cell number change is -2.23%. The AC50 under setting [1] was 29.1 µM [falling, partial curve, poor fit].

With `Cc1cc(C)nc(SCCC(=O)Nc2ccccc2)n1`, the cell number change is -76.9%. Also, the AC50 under setting [2] was 25.9 µM [falling, partial curve]. For the same compound, the AC50 under setting [1] is 0.651 µM [falling, single point].

In the case of `OCCN(CCO)c1ncnc2c1oc1ccc(Br)cc12`, the cell number change was 13.3%.

Turning to `Cc1ccccc1NC1=NC(=S)N(CC(N)=O)C12CCOC(C)(C)C2` (stereo not drawn), the AC50 under setting [1] is 29.1 µM [rising, single point].

Turning to `O=C1NCCCC1C(=O)N1CCN(C(=O)C2CCCNC2=O)CC1` (stereo not drawn), the cell number change is 23.5%. In addition, under setting [1], the AC50 was 29.1 µM [rising, single point].

Take `CCc1cccc(C)c1NC(=O)CCNC(=O)c1cccc(C)c1`: the cell number change is 12.2%. For the same compound, the AC50 under setting [1] was 0.58 µM [falling, single point].

As for `CCC(OC(=O)c1cccs1)C(=O)NC1CCCCC1` (stereo not drawn), the cell number change turned out to be 0.715%. Further, the AC50 under setting [1] was 0.164 µM [falling, full curve].

Take `CCc1nn(-c2cc(Oc3ccccc3)nc(-c3ccccc3)n2)c(N)c1C#N`: the cell number change was 13.2%. Besides, the AC50 under setting [1] is 5.8 µM [rising, partial curve].

Consider `Cc1ccc(NC(=O)CCN2C(=O)c3ccccc3C2=O)cc1`, for which the cell number change was -12.7%. Besides, the AC50 under setting [1] is 0.58 µM [rising, single point].

Consider `COc1ccc(C2C(C(=O)OCC(=O)Nc3ccc(C)cc3)CCC(=O)N2c2ccc(OC)cc2)cc1` (stereo not drawn), for which, under setting [2], the AC50 was 1.84 µM [rising, partial curve].

For the compound `CCn1c(-c2ccsc2)nc2c1c(=O)[nH]c(=O)n2Cc1ccccc1`, the cell number change is -4.17%. Also, the AC50 under setting [1] was 1.3 µM [rising, full curve].

Take `Cc1cc(N2CCOCC2)n2nc(C(F)(F)F)c(-c3ccccc3)c2n1`: the cell number change worked out at 11.8%. Also, the AC50 under setting [2] is 6.51 µM [falling, single point]. Moreover, the AC50 under setting [1] was 6.51 µM [falling, single point].

As for `Cc1ccc(NC(=O)COc2ccc(C(=O)c3ccccc3)cc2)c(O)c1`, the AC50 under setting [1] is 20 µM [falling, single point].

Take `COc1ccc(N2CCN(C(=O)c3cc4c(s3)CCCCC4)CC2)cc1`: the cell number change came to 4.74%. Also, under setting [1], the AC50 is 7.31 µM [falling, partial curve].

Turning to `O=C1c2ccccc2-c2onc3ccc(NCc4ccco4)c1c23`, the cell number change was -103%. Further, the AC50 under setting [2] is 18.4 µM [falling, partial curve]. Under setting [1], the AC50 was 5.8 µM [falling, full curve].

Take `N/C(=N\OS(=O)(=O)c1ccc2ccccc2c1)c1cccnc1`: the cell number change is 3.08%.

In the case of `O=C(/C=C/c1ccc(Br)cc1)c1ccc(NC2=NCCCS2)cc1`, the cell number change is -17.5%. In addition, the AC50 under setting [1] was 29.1 µM [falling, single point].

For the compound `Fc1ccccc1C1c2[nH]c3ccccc3c2CCN1Cc1ccoc1` (stereo not drawn), the cell number change was -42.9%. For the same compound, the AC50 under setting [2] is 9.2 µM [falling, partial curve]. The AC50 under setting [1] is 6.51 µM [falling, full curve, poor fit].

For the compound `CCOc1ncccc1C(=O)NNC(=O)c1cccc(S(=O)(=O)Nc2ccccc2OC)c1`, the AC50 was 3.66 µM [falling, partial curve] under setting [2] and 29.1 µM [falling, single point] under setting [1].

Turning to `COc1ccccc1CNCC(=O)Nc1ccc(N(C)C)cc1`, the cell number change was determined as 18.3%. Also, the AC50 under setting [1] was 1.64 µM [rising, full curve, poor fit].

Consider `Cc1ccc(OCC(=O)Nc2ccc3oc(=O)ccc3c2)cc1C`, for which the cell number change worked out at 23.9%.

Turning to `COc1cc(/C=N/NC(=O)Cc2nnc(NC(=O)c3ccccc3)s2)ccc1O`, the cell number change worked out at 19.1%. In addition, the AC50 under setting [2] is 2.06 µM [rising, full curve, poor fit].

Take `Cc1ccc(S(=O)(=O)NCCC(=O)NNC(=O)c2ccccc2O)cc1C`: the cell number change was determined as 1.68%.

As to `Cc1ccc2cc(CCNC(=O)C(C)C)c(=O)[nH]c2c1`, the AC50 under setting [2] was 1.84 µM [rising, partial curve].

Take `CN(C)C(=O)C(=O)c1c(-c2ccccc2)cc2ccccn12`: the cell number change was -110%. For the same compound, the AC50 under setting [2] was 25.9 µM [falling, partial curve, poor fit]. Further, the AC50 under setting [1] was 16.4 µM [falling, partial curve].

Take `Cc1ccc(-c2nn(CC(N)=O)c(=O)c3ccccc23)cc1S(=O)(=O)N(C)C`: the cell number change is 50.4%. The AC50 under setting [2] was 1.64 µM [rising, full curve]. Under setting [1], the AC50 was 0.366 µM [rising, partial curve, poor fit].

Turning to `COc1cccc(N2CCN(C(=O)c3ccc4nc(N5CCCCC5)sc4c3)CC2)c1`, the AC50 under setting [1] was 29.1 µM [falling, single point].

With `CCOc1ncccc1C(=O)Nc1cc(S(=O)(=O)N2CCCCC2)ccc1C`, the cell number change came out at 6.59%. The AC50 under setting [2] is 0.92 µM [rising, partial curve, poor fit]. In addition, the concentration at half-maximal activity (AC50) under setting [1] is 0.58 µM [rising, full curve].

`Cc1ccc(N2C(=O)c3ccc(C(=O)O)cc3C2=O)c(C)c1`: the cell number change was -9.16%.

As for `COCc1cc(C)nc2sc3c(=O)oc(C)nc3c12`, the cell number change was -14%. For the same compound, under setting [1], the AC50 is 0.517 µM [rising, single point].

For the compound `C#CCOCCOCCOCCNc1nc(N2CCN(C(=O)[C@H](Cc3cc4ccccc4[nH]3)n3cc([C@@H](N)Cc4ccc(O)cc4)nn3)CC2)nc(N2CCN(C(=O)[C@H](Cc3cc4ccccc4[nH]3)n3cc([C@@H](N)CC(C)C)nn3)CC2)n1`, the cell number change was -35.9%. Moreover, under setting [2], the half-maximal activity concentration (AC50) was 32.6 µM [falling, single point]. Under setting [1], the AC50 is 32.6 µM [falling, single point].

Take `O=C(Cc1ccccc1)Nc1nnc(-c2cccs2)s1`: the cell number change was 75.3%. Further, the AC50 under setting [2] was 11.6 µM [rising, partial curve]. The AC50 under setting [1] is 8.2 µM [rising, partial curve].

Consider `CCCCc1nc2ccccc2c(NC(=O)CN(CC)CC)c1CCC`, for which the cell number change worked out at 9.83%. For the same compound, the AC50 under setting [2] is 0.651 µM [rising, single point].

Consider `Cc1cc(OCc2cc(C(=O)N3CCC(Oc4cccnc4)CC3)no2)cc(C)c1Cl`, for which the cell number change is -10.4%.

For the compound `CCC(C)(C)NC(=O)C(C(C)C)N(CC1CCCO1)C(=O)CNS(=O)(=O)c1ccc(F)cc1` (stereo not drawn), the cell number change was -20.5%.

`O=Nc1c(O)n(Cc2ccc(Cl)cc2)c2ccccc12`: the cell number change was -50.9%. Moreover, the AC50 under setting [2] is 20.6 µM [falling, partial curve]. The AC50 under setting [1] was 29.1 µM [falling, single point].

Turning to `CCCCC(=O)Nc1ccccc1Oc1ccccc1`, the cell number change was 20.3%. Under setting [1], the AC50 was 1.84 µM [rising, full curve, poor fit].

Turning to `O=C(c1cc(-c2ccc(Br)cc2)on1)N1CCOCC1`, the cell number change was 25.7%. Besides, the AC50 under setting [1] is 0.58 µM [falling, single point].

For `CCCc1ccc(S(=O)(=O)N2CCN(C(C)C(=O)NCc3ccccc3)CC2)cc1` (stereo not drawn), the cell number change turned out to be 81.1%. Besides, under setting [2], the AC50 was 20.6 µM [rising, partial curve].

Consider `Cc1ccc(OCC(=O)NS(=O)(=O)c2ccccc2)cc1`, for which the cell number change was -7.32%.

With `Cc1nc(OCc2ccccc2)c2sc3nc4c(cc3c2n1)COC(C)(C)C4`, the cell number change was -23.2%. In addition, the AC50 under setting [2] is 0.326 µM [rising, full curve, poor fit]. In addition, the AC50 under setting [1] is 0.164 µM [rising, full curve, poor fit].

As to `CN(CC(=O)Nc1cccc(F)c1)C(=O)c1ccc(-c2cccc(C(F)(F)F)c2)o1`, the cell number change is -54.5%. Further, the AC50 under setting [2] is 16.4 µM [falling, partial curve].

In the case of `Cc1ccccc1NC(=O)c1ccccc1NC(=O)c1ccco1`, the cell number change was -8.09%. Further, under setting [1], the AC50 was 1.84 µM [rising, partial curve].

For `O=C(NCCCN1CCN(c2ccccc2)CC1)Nc1ccccc1C(F)(F)F`, the cell number change stood at 9.35%. Moreover, the AC50 under setting [1] is 20.6 µM [rising, single point].

Turning to `C=CCn1c(SCC(=O)C(C)(C)C)nnc1-c1cccs1`, the cell number change amounted to 4.66%. In addition, the AC50 under setting [1] is 0.259 µM [rising, full curve, poor fit].

Usually AC50 stands for the concentration at which the activity in the assay is half-maximal.
